These are yes or no findings as the source states them, for the method shown. Binding seen in cells or lysates may run through a third protein. Some results given as binding are weak or reduced against the parent protein; the word gives no strength.
Columns and labels:
[1] = molecular target: c-Fos (endogenous) (human (endogenous in 5637)) (UniProt P01100); test: co-IP; endogenous proteins in 5637 cells; lysate precleared with protein A/G beads, anti-RBPMS, anti-c-Fos or anti-c-Jun antibody overnight at 4 °C, protein A/G beads 2 h; Western blot
[2] = molecular target: c-Jun (endogenous) (human (endogenous in 5637)) (UniProt P05412); test: as above
[3] = molecular target: c-Jun (in T24 cells, precipitated with an antibody against c-Jun) (UniProt P05412); test: co-IP; T24 cells; precipitation with an antibody against c-Jun, blot for RBPMS
[4] = molecular target: c-Fos (exogenously expressed) (UniProt P01100); test: co-IP; exogenous expressed proteins in T24 cells; lysis 48 h after transfection in 50 mM Tris-HCl pH 7.4, 150 mM NaCl, 0.1-0.5% NP-40; anti-FLAG/MYC antibody-conjugated agarose beads overnight; Western blot

Amino acid sequences for entries named in this document (tags omitted).
UniProt P05412: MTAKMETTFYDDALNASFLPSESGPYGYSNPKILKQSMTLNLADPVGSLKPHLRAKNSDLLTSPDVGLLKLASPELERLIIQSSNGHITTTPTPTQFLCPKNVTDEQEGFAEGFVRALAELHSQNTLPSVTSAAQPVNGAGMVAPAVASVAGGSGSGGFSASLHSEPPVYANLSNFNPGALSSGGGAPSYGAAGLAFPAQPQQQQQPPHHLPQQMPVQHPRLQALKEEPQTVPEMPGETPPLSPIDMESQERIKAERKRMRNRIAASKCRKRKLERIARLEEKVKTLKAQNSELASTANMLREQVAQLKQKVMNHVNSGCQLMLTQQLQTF

Row | Substance | binding [1] | binding [2] | binding [3] | binding [4]
1 | RBPMS (endogenous) (from UniProt Q93062 1-196) | binds | no binding |  | 
2 | RBPMS (exogenously expressed, tagged) (from UniProt Q93062 1-196) |  |  | no binding | binds

— article PMC10499981
